Experimental findings from PubChem BioAssay AID330 (DTP/NCI, 2004) are described below.

The list does not hold the whole screen: it gathers tests that were run many times, whatever their T/C, doses with no T/C, and many T/C values between a quarter and a half above the control. Other doses and runs of a compound stand elsewhere. T/C is the treated group as % of the vehicle group. Some doses have a count of surviving animals in place of a T/C: the source holds a T/C of zero for them, seemingly a mark for toxic or unscored doses. Some survivor counts are full or nearly so, which does not show that the dose was tolerated: survival well below the control is almost never listed, so the zero probably covers shortened survival too. Counts of survivors are from the toxicity check (mostly the fifth day) where no day follows; animals may have died later. Schedule codes are those of the source, taken here to give the interval after Q, in days (D) or hours (H), and the number of doses after X. Some structures stand for samples that the source files as different forms (salt, stereo form or complex); doses refer to the form tested. Some entries were tested several times; their values stand side by side, smallest first. Where survival is the endpoint, the PubChem record calls one and a half times the control and up active, and a quarter to a half above the control has no call in these data; cut-offs in other NCI protocols can differ. Some T/C values are followed by the survivors on the day toxicity was checked, most often the fifth; without a count, all were alive then. Signs of the kind (2×) count equal records among those shown.

The experiment relates to P388 leukemia ip, CD2F1 mice, survival T/C. Kind of experiment: NCI In Vivo Anticancer Drug Screen. Data for tumor model P388 Leukemia (intraperitoneal) in CD2F1 (CDF1) mice. As to conditions: T/C endpoint: median survival time, higher T/C = longer survival.
Setting [1] is: dose: 200.0 mg/kg/injection, schedule: Q04DX003 (ip), vehicle: Klucel (hydroxypropylcellulose) (HPC).
Setting [2] is: dose: 100.0 mg/kg/injection, schedule: Q01DX005 (ip), vehicle: Klucel (hydroxypropylcellulose) (HPC).
[3] abbreviates: dose: 200.0 mg/kg/injection, schedule: Q01DX005 (ip), vehicle: Klucel (hydroxypropylcellulose) (HPC).
[4] abbreviates: dose: 400.0 mg/kg/injection, schedule: Q04DX003 (ip), vehicle: saline with Tween-80.
Setting [5] is: dose: 20.0 mg/kg/injection, schedule: Q01DX009 (ip), vehicle: water.
The mark [6] stands for this setting: dose: 25.0 mg/kg/injection, schedule: Q01DX009 (ip), vehicle: water.

On to `O=C(N/N=C\c1ccc(N(CCCl)CCCl)cc1)c1cccnc1`, for which the T/C (dose: 50.0 mg/kg/injection, schedule: Q01DX009 (ip), vehicle: Klucel (hydroxypropylcellulose) (HPC)) was 127 % of control and the T/C (dose: 100.0 mg/kg/injection, schedule: Q01DX009 (ip), vehicle: Klucel (hydroxypropylcellulose) (HPC)) was 125 % of control [5 of 6 alive].
Regarding `CC(C)COC(=O)N(CCF)N=O`, the T/C by setting is: (dose: 2.5 mg/kg/injection, schedule: Q01DX009 (ip), vehicle: saline with Tween-80) 126 % of control; (dose: 5.0 mg/kg/injection, schedule: Q01DX009 (ip), vehicle: saline with Tween-80) 128 % of control. Further, the survivor count (dose: 10.0 mg/kg/injection, schedule: Q01DX009 (ip), vehicle: saline with Tween-80) is listed as 6 of 6 and the survivor count (dose: 20.0 mg/kg/injection, schedule: Q01DX009 (ip), vehicle: saline with Tween-80) is listed as 0 of 6.
As for `CC(=O)CCN1C(C#N)CCCC1C#N` (centres undefined), the survivor count by setting is: (dose: 50.0 mg/kg/injection, schedule: Q01DX005 (ip), vehicle: saline with Tween-80) 0 of 5; (dose: 100.0 mg/kg/injection, schedule: Q01DX005 (ip), vehicle: saline with Tween-80) 0 of 5; (dose: 200.0 mg/kg/injection, schedule: Q01DX005 (ip), vehicle: saline with Tween-80) 0 of 5.
For `[Cu+2].[O-]/N=C/c1cccc(O)c1[O-].[O-]/N=C/c1cccc(O)c1[O-]`, the survivor count is listed as 0 of 6 (dose: 60.0 mg/kg/injection, schedule: Q01DX005 (ip), vehicle: saline with Tween-80) and 0 of 6 (dose: 240.0 mg/kg/injection, schedule: Q01DX005 (ip), vehicle: saline with Tween-80).
On to `CC1=CC(=O)C=CC1=Nc1ccc(N(CCCl)CCCl)cc1`, for which, under setting [1], the T/C was 127 % of control.
Regarding `C=C1C(=O)OC2C1C(OC(=O)/C(C)=C\C)CC(C)=C1C(=O)C3OC3(C)C12O` (centres undefined), the survivor count (dose: 100.0 mg/kg/injection, schedule: Q01DX005 (ip), vehicle: saline + alcohol) is listed as 0 of 6.
For the molecule `CSc1nc(C)c(Br)c(N2CC2)n1`, the survivor count is recorded as 6 of 6 (dose: 6.25 mg/kg/injection, schedule: Q01DX005 (ip), vehicle: Klucel (hydroxypropylcellulose) (HPC)); 6 of 6 (dose: 12.5 mg/kg/injection, schedule: Q01DX005 (ip), vehicle: Klucel (hydroxypropylcellulose) (HPC)); 5 of 6 under setting [2]; 0 of 6 under setting [3].
`C/C(=N\N=C(/[Se])N1CCC1)c1ccccn1`: the survivor count reads like this: (dose: 50.0 mg/kg/injection, schedule: Q04DX003 (ip), vehicle: Klucel (hydroxypropylcellulose) (HPC)) 6 of 6; (dose: 100.0 mg/kg/injection, schedule: Q04DX003 (ip), vehicle: Klucel (hydroxypropylcellulose) (HPC)) 0 of 6; under setting [1], 0 of 6; (dose: 400.0 mg/kg/injection, schedule: Q04DX003 (ip), vehicle: Klucel (hydroxypropylcellulose) (HPC)) 0 of 6.
As to `COC(=O)c1[c]([Sn]([CH3])([CH3])[CH3])n[n]([Pb]([CH3])([CH3])[CH3])c1C(=O)OC`, the survivor count is, setting by setting: (dose: 100.0 mg/kg/injection, schedule: Q04DX003 (ip), vehicle: saline with Tween-80) 0 of 6; (dose: 200.0 mg/kg/injection, schedule: Q04DX003 (ip), vehicle: saline with Tween-80) 0 of 6; under setting [4], 0 of 6.
On to `CC(=O)OC1OC(COS(=O)(=O)c2ccc(C)cc2)C(OC(C)=O)C(OC(C)=O)C1OC(C)=O` (centres undefined), for which the survivor count (dose: 50.0 mg/kg/injection, schedule: Q01DX009 (ip), vehicle: other) is on record as 6 of 6.
`CC[n+]1c(-c2ccccc2)c2cc(N)ccc2c2ccc(N)cc21`: the T/C by setting is: (dose: 0.78 mg/kg/injection, schedule: Q01DX009 (ip), vehicle: saline) 136 % of control; (dose: 1.25 mg/kg/injection, schedule: Q01DX009 (ip), vehicle: water) 128 % of control; (dose: 1.56 mg/kg/injection, schedule: Q01DX009 (ip), vehicle: water) 128, 130 [5 of 6 alive], 134, 136, 140 % of control; (dose: 2.5 mg/kg/injection, schedule: Q01DX009 (ip), vehicle: water) 137, 140, 142, 144, 145, 148, 149, 158 % of control; (dose: 3.12 mg/kg/injection, schedule: Q01DX005 (ip), vehicle: water) 134 and 142 % of control; (dose: 3.12 mg/kg/injection, schedule: Q01DX009 (ip), vehicle: water) 139 and 145 % of control. Further, the T/C is, setting by setting: (dose: 3.13 mg/kg/injection, schedule: Q01DX009 (ip), vehicle: water) 143 and 146 % of control; (dose: 5.0 mg/kg/injection, schedule: Q01DX009 (ip), vehicle: water) 143, 155, 156, 158 (2×), 169, 175, 179 % of control; (dose: 6.25 mg/kg/injection, schedule: Q01DX005 (ip), vehicle: water) 135 [5 of 6 alive] and 148 % of control; (dose: 6.25 mg/kg/injection, schedule: Q01DX009 (ip), vehicle: water) 136, 142, 150, 151, 160 % of control; (dose: 6.25 mg/kg/injection, schedule: Q04DX003 (ip), vehicle: saline) 137 % of control; (dose: 6.25 mg/kg/injection, schedule: Q04DX003 (ip), vehicle: water) 132 % of control. The T/C is 127 % of control (dose: 8.0 mg/kg/injection, schedule: Q04DX003 (ip), vehicle: saline sonified); 98, 102, 128, 169, 174, 189, 200, 201 % of control (dose: 10.0 mg/kg/injection, schedule: Q01DX009 (ip), vehicle: water); 136 % of control (dose: 12.0 mg/kg/injection, schedule: Q04DX003 (ip), vehicle: saline sonified); 135 and 144 % of control (dose: 12.5 mg/kg/injection, schedule: Q01DX005 (ip), vehicle: water); 127 [5 of 6 alive], 133, 142, 163, 173 % of control (dose: 12.5 mg/kg/injection, schedule: Q01DX009 (ip), vehicle: water); 146 % of control (dose: 12.5 mg/kg/injection, schedule: Q04DX003 (ip), vehicle: saline). Also, the T/C was 145 % of control (dose: 12.5 mg/kg/injection, schedule: Q04DX003 (ip), vehicle: water); 91 (2×), 99, 180 % of control under setting [5]; 170 % of control under setting [6]; 141 % of control (dose: 25.0 mg/kg/injection, schedule: Q04DX003 (ip), vehicle: water). Further, the survivor count is 6 of 6 under setting [5]; 6 of 6 (dose: 25.0 mg/kg/injection, schedule: Q01DX005 (ip), vehicle: water); 4 of 6 and 6 of 6 under setting [6]; 3 of 6, 4 of 6, 5 of 6, 6 of 6 (dose: 40.0 mg/kg/injection, schedule: Q01DX009 (ip), vehicle: water); 2 of 6 and 4 of 6 (dose: 50.0 mg/kg/injection, schedule: Q01DX005 (ip), vehicle: water).
With `O=[N+]([O-])c1ccccc1OCC(O)CCl` (centres undefined), the survivor count (dose: 200.0 mg/kg/injection, schedule: Q01DX009 (ip), vehicle: saline with Tween-80) is 2 of 6.
In the case of `COc1ccc(C2=CC3CCC(C2)N3C)cc1` (centres undefined), the survivor count (dose: 50.0 mg/kg/injection, schedule: Q01DX005 (ip), vehicle: Klucel (hydroxypropylcellulose) (HPC)) is listed as 3 of 6; the survivor count under setting [2] was 0 of 6; the survivor count (dose: 100.0 mg/kg/injection, schedule: Q01DX005 (ip), vehicle: saline) is recorded as 0 of 6; the survivor count under setting [3] is reported as 0 of 6.
Consider `CC(C)(C)SC(=O)C1CC1`, for which the survivor count under setting [4] is given as 0 of 6.
Regarding `O=C(OCc1ccccc1)ON1C(=O)C2C3C=CC(C3)C2C1=O` (centres undefined), under setting [3], the survivor count was 3 of 5.
